We go through three molecules from US7288381 (PHADIA, dated 2007).

Substitutions are numbered along the chain they refer to. These are yes or no findings as the source states them, for the method shown. Some results given as binding are weak or reduced against the parent protein; the word gives no strength.

To fix the notation:
B1: Phl p 2-specific human IgE Fab, clone 60 (Fab, V domains shown)
VH: LESGPGLVKPSQTLSLTCTVSGGSIRSGGYYWSWVRQPPGKGLEWIGNIYHSGNTYYNPSLKSRITMSVDTSKNHFSLRLTSVTAADTAVYYCARSDGYTLDNWGQGTLVTVSS
VL: ELTQSPSSLSASVGDRVTITCRARQSISTYLNWYQQKPGKAPKLLIWSASNLQSGVPSRFSGSGSGTEFTLTISNLQFEDFASYYCQQSYTTLYTFGSGTKLEIKR
notes: Human IgE Fab (Fd plus kappa light chain) expressed from pComb3H in E. coli and used as bacterial extract; also called rPhl p 2-specific IgE Fab; anti-Phl p 2 Fab
B2: Phl p 2-specific human IgE Fab, clone 100 (Fab, V domains shown)
VH: B1 VH with V35I, N48Y, I65V, T81S
VL: ELTQSPSSVSASVGDRVTITCRASQGISSWLAWYQHQPGKAPKLLIYSASSLQSGVPSRFSGSGYGTDFSLTISSLQFEDSATYYCQQANSFPYTFGQGTKVEIKR
notes: as for B1
B3: Phl p 2-specific human IgE Fab, clone 94 (Fab, V domains shown)
VH: LESGPGLVKPAQTLSLSCAVSGGSIRSGGYYWSWIRQHPGKGLEWIGYIYHSGNTYYNPSLKSRIAMSVDTSENKFSLRLNSVTAADTAVYYCARLDGYTLDIWGQGTLVTVSS
VL: ELTQSPSSLSASVGDRVTISCRASQRINTYLNWYQHKPGKAPKLLIYAASSLQSGVPSRFSGSGYGTDFTLTISSLQFEDFASYYCQESLSASYTFGQGTKVEIKR
notes: Human IgE Fab (heavy chain fragment Fd plus kappa light chain) expressed from pComb3H in E. coli and used as bacterial extract; they start at the Xho I / Sac I cloning sites; also called clone 94-derived IgE Fab; rPhl p 2-specific IgE Fab

One assay addresses recombinant Phl p 2 from timothy grass (timothy grass) (UniProt P43214). Kind of assay: phage panning; ELISA check. On the technique in general: ELISA stands for enzyme-linked immunosorbent assay.
Take B1: the binding result is given as “binds”.

B2: the binding result is recorded as “binds”.

Turning to B3, the binding result is “binds”.

A further assay concerns the target complete β-gal-fused rPhl p 2 allergen (96 aa) (timothy grass) [β-galactosidase: P00722]. As to the kind of experiment: dot blot of β-gal fusion proteins.
B1: the binding entry is “binds”.

B2: the binding result was “binds”.

For the molecule B3, the binding entry is given as “binds”.
